Measured data: PubChem BioAssay AID1259254 (NCATS, 2017)

Test: 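Genome-wide screen for genes that prevent DNA re-replication in cancer cells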 (primary screen)
Cells: human HCT116 colorectal cancer cells
Knock-down reagent: single siRNA against human genes
Time to read-out: 3 days
Detection: 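Nuclei stained with Hoechst and imaged; cell-cycle phase assigned by DNA content; G2 share scaled per plate, non-targeting siRNA 0%, GMNN siRNA 100%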
Scale: G2 robust z-score: higher = more G2 cells, more excess DNA replication
Active means: 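An siRNA counts as active if its G2 robust z-score lies at least 5 MADs above the screen median; here such calls match roughly 38% of GMNN control or more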
The deposit covers about 59,000 reagents; shown is an unselected part. Of all reagents, about 1,550 (2.6%) got an active call. 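G2 share is only a proxy for re-replication; each gene was hit by three separate siRNAs, and active genes were retested.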 Reagents against one gene are numbered here. Not all columns of the deposit are shown. No sequences are given here. The record does not give: the amount of reagent.

G2 robust z-score, by gene and reagent
PDRG1: #1 0.949 inactive; #2 -0.0136 inactive; #3 -0.645 inactive
CCL3: #1 3.21 inactive; #2 -0.911 inactive; #3 -0.7 inactive
SLC1A6: #1 -0.823 inactive; #2 -0.49 inactive; #3 -0.786 inactive
SRSF12: #1 -0.502 inactive; #2 0.478 inactive; #3 -0.839 inactive
KRTAP5-2: #1 3.87 inactive; #2 -0.313 inactive; #3 0.729 inactive
TCTN2: #1 -0.788 inactive; #2 1.9 inactive; #3 -0.82 inactive
LACC1: #1 -0.228 inactive; #2 2.15 inactive; #3 -0.548 inactive
SPMIP8: #1 1.86 inactive; #2 -0.634 inactive; #3 1.34 inactive
GPR84: #1 -0.756 inactive; #2 0.513 inactive; #3 -0.703 inactive
DEFB104A: #1 0.46 inactive; #2 -0.544 inactive; #3 0.0765 inactive
ARID5A: #1 -0.295 inactive; #2 -0.0452 inactive; #3 -0.239 inactive
EPPK1: #1 3.29 inactive; #2 0.24 inactive; #3 5.58 active
C6orf120: #1 -0.952 inactive; #2 -0.79 inactive; #3 1.05 inactive
PRR23B: #1 -0.781 inactive; #2 1.79 inactive; #3 0.885 inactive
AQP2: #1 0.305 inactive; #2 -1.22 inactive; #3 0.057 inactive
S100A5: #1 -0.836 inactive; #2 0.325 inactive; #3 -0.693 inactive
SKIDA1: #1 -0.56 inactive; #2 2.6 inactive; #3 -0.555 inactive
VPS4A: #1 -0.374 inactive; #2 -0.975 inactive; #3 -0.554 inactive
ZDHHC4: #1 -0.182 inactive; #2 -0.156 inactive; #3 0.909 inactive
THAP12: #1 1.64 inactive; #2 -0.683 inactive; #3 3.94 inactive
MTRFR: #1 -0.523 inactive; #2 -0.498 inactive; #3 -0.462 inactive
TMED8: #1 0.715 inactive; #2 -0.618 inactive; #3 0.282 inactive
OR9I1: #1 0.054 inactive; #2 2.04 inactive; #3 -0.217 inactive
